Some of these results come from one statement about several compounds together. At least one structure is not confirmed: it was looked up by name or label, or the drawing left a doubt.
What was measured:
Assay type in all cases: in vivo
Echinochloa crus galli [1] = assay: Post-emergence herbicidal effect, greenhouse pot test; details: 0.32 kg of active substance per hectare, 100% = plants have died
Setaria viridis [2] = assay: as above; details: 0.32 kg of active substance per hectare, 100% = plants have died
Avena fatua = assay: as above; details: 0.32 kg of active substance per hectare, 100% = plants have died
Viola tricolor [3] = assay: as above; details: 0.32 kg of active substance per hectare, 100% = plants have died
Alopecurus myosuroides = assay: as above; details: 0.32 kg of active substance per hectare, 100% = plants have died
Veronica persica [4] = assay: as above; details: 0.32 kg of active substance per hectare, 100% = plants have died
Lolium multiflorum = assay: as above; details: 0.32 kg of active substance per hectare, 100% = plants have died
Echinochloa crus galli [5] = assay: Pre-emergence herbicidal effect, greenhouse pot test; details: 1.0 kg or 0.32 kg of active substance per hectare, 100% = plants have died
Source text: (§1) Seeds of monocotyledonous or dicotyledonous weed plants or crop plants are planted in wood-fiber pots in sandy loam and covered with soil. The compounds (I) according to the invention, formulated in the form of wettable powders (WP), are then applied as aqueous suspension or emulsion at a water application rate of 600 I/ha (converted) with the addition of 0.2% of wetting agent to the surface of the covering soil.
(§2) Following the treatment, the pots are placed in a greenhouse and kept under good growth conditions for the test plants. After about 3 weeks, the effect of the preparations is scored visually in comparison with untreated controls (herbicidal effect in percent (%): 100% effect=plants have died, 0% effect=as control plants).

Setaria viridis [6] = assay: as above; details: 1.0 kg or 0.32 kg of active substance per hectare, 100% = plants have died
Source text: as §1, §2

Veronica persica [7] = assay: as above; details: 1.0 kg or 0.32 kg of active substance per hectare, 100% = plants have died
Stellaria media = assay: as above; details: 1.0 kg or 0.32 kg of active substance per hectare, 100% = plants have died
Viola tricolor [8] = assay: as above; details: 1.0 kg or 0.32 kg of active substance per hectare, 100% = plants have died

| SMILES | herbicidal activity (Echinochloa crus galli [1]) [%] | herbicidal activity (Setaria viridis [2]) [%] | herbicidal activity (Avena fatua) [%] | herbicidal activity (Viola tricolor [3]) [%] | herbicidal activity (Alopecurus myosuroides) [%] | herbicidal activity (Veronica persica [4]) [%] | herbicidal activity (Lolium multiflorum) [%] | herbicidal activity (Echinochloa crus galli [5]) [%] | herbicidal activity (Setaria viridis [6]) [%] | herbicidal activity (Veronica persica [7]) [%] | herbicidal activity (Stellaria media) [%] | herbicidal activity (Viola tricolor [8]) [%] |
| --- | --- | --- | --- | --- | --- | --- | --- | --- | --- | --- | --- | --- |
| Cc1nn(-c2cncs2)c(-c2ccc(Cl)cc2)c1CC(=O)O [Compound 7-29, [5-(4-Chlorophenyl)-3-methyl-1-(1,3-thiazol-5-yl)-1H-pyrazol-4-yl]acetic acid] | ≥ 80 | ≥ 80 | ≥ 80 | – | – | – | – | – | – | – | – | – |
| COC(=O)Cc1c(C)nn(-c2cncs2)c1-c1ccccc1 [Compound 8-2] | – | – | – | ≥ 80 | ≥ 80 | – | – | – | – | – | – | – |
| COC(=O)Cc1c(C)nn(-c2cncs2)c1-c1ccc(C)cc1 [Compound 8-16] | ≥ 80 | ≥ 80 | ≥ 80 | ≥ 80 | ≥ 80 | – | – | – | – | – | – | – |
| COC(=O)Cc1c(C)nn(-c2cncs2)c1-c1ccc(Cl)cc1 [Compound 8-28, methyl[5-(4-chlorophenyl)-3-methyl-1-(1,3-thiazol-5-yl)-1H-pyrazol-4-yl]acetate] | ≥ 80 | ≥ 80 | ≥ 80 | – | ≥ 80 | – | – | – | – | – | – | – |
| COC(=O)Cc1c(C)nn(-c2cncs2)c1-c1ccc(Br)s1 [Compound 8-69] | ≥ 80 | ≥ 80 | ≥ 80 | ≥ 80 | ≥ 80 | – | – | – | – | – | – | – |
| COC(=O)Cc1c(C)nn(-c2cncs2)c1-c1ccccn1 [Compound 8-117] | ≥ 80 | ≥ 80 | ≥ 80 | ≥ 80 | ≥ 80 | ≥ 80 | ≥ 80 | – | – | – | – | – |
| COC(=O)Cc1c(C)nn(-c2cncs2)c1-c1ccc(Cl)cn1 [Compound 8-118] | ≥ 80 | ≥ 80 | ≥ 80 | ≥ 80 | ≥ 80 | ≥ 80 | ≥ 80 | – | – | – | – | – |
| COC(=O)Cc1c(C)nn(-c2cncs2)c1-c1ccc(Br)cn1 [Compound 8-121] | ≥ 80 | ≥ 80 | ≥ 80 | ≥ 80 | ≥ 80 | ≥ 80 | ≥ 80 | ≥ 70 | ≥ 70 | – | – | – |
| COC(=O)Cc1c(C)nn(-c2cncs2)c1-c1ccc(F)cc1 [Compound 8-133] | ≥ 80 | ≥ 80 | ≥ 80 | – | ≥ 80 | – | – | – | – | – | – | – |
| COC(=O)Cc1c(C)nn(-c2cncs2)c1-c1ccncc1 [Compound 8-139] | ≥ 80 | ≥ 80 | ≥ 80 | – | – | – | – | – | – | – | – | – |
| COC(=O)Cc1c(C)nn(-c2cncs2)c1-c1cnc(C)cn1 [Compound 8-217] | ≥ 80 | ≥ 80 | ≥ 80 | – | ≥ 80 | – | ≥ 80 | – | – | – | – | – |
| COC(=O)Cc1c(C)nn(-c2cncs2)c1-c1nc2ccccc2s1 [Compound 8-219] | – | – | – | – | ≥ 80 | – | ≥ 80 | – | – | – | – | – |
| COC(=O)Cc1c(C)nn(-c2cncs2)c1-c1ncc(Cl)cn1 [Compound 8-229] | ≥ 80 | ≥ 80 | ≥ 80 | ≥ 80 | ≥ 80 | ≥ 80 | ≥ 80 | – | – | ≥ 70 | ≥ 70 | ≥ 70 |
| COC(=O)Cc1c(C)nn(-c2cncs2)c1-c1ncc(Br)cn1 [Compound 8-230] | ≥ 80 | ≥ 80 | ≥ 80 | – | – | – | ≥ 80 | – | – | – | – | – |
| COC(=O)Cc1c(C)nn(-c2cncs2)c1-c1ccc2ccccc2n1 [Compound 8-239] | – | – | – | – | ≥ 80 | – | ≥ 80 | – | – | – | – | – |
| COC(=O)Cc1c(C)nn(-c2cncs2)c1-c1cc2ccccc2cn1 [Compound 8-240] | ≥ 80 | ≥ 80 | ≥ 80 | – | – | ≥ 80 | ≥ 80 | – | – | – | – | – |
| COC(=O)Cc1c(C)nn(-c2cncs2)c1-c1cc(C)c(Cl)cn1 [Compound 8-294] | ≥ 80 | ≥ 80 | ≥ 80 | – | ≥ 80 | – | ≥ 80 | – | – | – | – | – |
| CCOC(=O)Cc1c(C)nn(-c2cncs2)c1-c1ccc(Cl)cc1 [Compound 9-4] | ≥ 80 | ≥ 80 | ≥ 80 | – | – | – | – | – | – | ≥ 70 | ≥ 70 | ≥ 70 |
| C#CCOC(=O)Cc1c(C)nn(-c2cncs2)c1-c1ccncc1 [Compound 9-118] | – | – | – | – | – | – | – | ≥ 70 | ≥ 70 | – | – | – |
| Cc1nn(-c2cncs2)c(-c2ccc(Cl)cc2)c1CC(=O)OCC1CC1 [Compound 9-122] | ≥ 80 | ≥ 80 | ≥ 80 | – | – | – | – | – | – | – | – | – |

From patent publication US8067611B2, “Substituted 1-(thiazolyl)-and 1-(isothiazolyl)pyrazol-4-ylacetic acids, processes for their preparation and their use as herbicides and plant growth regulators” (Bayer CropScience AG, priority 2008, dated 2011)
